From the supplement of paper PMC8728848
The list shows a part of the results.

Legend:
Assay in all cases: glycan array binding signal (z-score within array); higher = stronger binding
Conditions in all cases: glycan notation: IUPAC condensed, linker removed
Fuc(a1-3)GlcNAc = target: Fuc(a1-3)GlcNAc
Summary of the method: (§1)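 Negative Z-scores can be read as non-binding. The Z-score is calculated within each array and then averaged across arrays of one protein sequence at different concentrations or buffers and across linkers. Arrays, 3228 in all, were curated from the Consortium for Functional Glycomics database and kept only where the protein sequence was available.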

[1] = target: Fuc(a1-3)[Gal(b1-4)]Glc6S
Summary of the method: as §1

[2] = target: Fuc(a1-3)[Gal(b1-4)]GlcNAc
Summary of the method: as §1

[3] = target: Fuc(a1-3)[Gal(b1-4)]GlcNAc(b1-2)Man
Summary of the method: as §1

[4] = target: Fuc(a1-3)[Gal(b1-4)]GlcNAc(b1-2)Man(a1-3)[Fuc(a1-3)[Gal(b1-4)]GlcNAc(b1-2)Man(a1-6)]Man(b1-4)GlcNAc(b1-4)GlcNAc
Summary of the method: as §1

[5] = target: Fuc(a1-3)[Gal(b1-4)]GlcNAc(b1-2)Man(a1-3)[Fuc(a1-3)[Gal(b1-4)]GlcNAc(b1-2)Man(a1-6)]Man(b1-4)GlcNAc(b1-4)[Fuc(a1-6)]GlcNAc
Summary of the method: as §1

[6] = target: Fuc(a1-3)[Gal(b1-4)]GlcNAc(b1-3)Gal(b1-3)[Fuc(a1-4)]GlcNAc
Summary of the method: as §1

[7] = target: Fuc(a1-3)[Gal(b1-4)]GlcNAc(b1-3)Gal(b1-4)[Fuc(a1-3)]GlcNAc
Summary of the method: as §1

[8] = target: Fuc(a1-3)[Gal(b1-4)]GlcNAc(b1-3)Gal(b1-4)[Fuc(a1-3)]GlcNAc(b1-3)Gal(b1-4)[Fuc(a1-3)]GlcNAc
Summary of the method: as §1

[9] = target: Fuc(a1-3)[Gal(b1-4)]GlcNAc(b1-3)GalNAc
Summary of the method: as §1

[10] = target: Fuc(a1-3)[Gal(b1-4)]GlcNAc(b1-6)GalNAc
Summary of the method: as §1

[11] = target: Fuc(a1-3)[Gal(b1-4)]GlcNAc(b1-6)[Gal(b1-3)GlcNAc(b1-3)]Gal(b1-4)Glc
Summary of the method: as §1

[12] = target: Fuc(a1-3)[Gal(b1-4)]GlcNAc6S
Summary of the method: as §1

[13] = target: Fuc(a1-3)[Gal3S(b1-4)]Glc
Summary of the method: as §1

[14] = target: Fuc(a1-3)[Gal3S(b1-4)]GlcNAc
Summary of the method: as §1

[15] = target: Fuc(a1-3)[Gal3S(b1-4)]GlcNAc6S
Summary of the method: as §1

[16] = target: Fuc(a1-3)[GalNAc(b1-4)]GlcNAc
Summary of the method: as §1

[17] = target: Fuc(a1-3)[GalNAc(b1-4)]GlcNAc6S
Summary of the method: as §1

Fuc(a1-4)GlcNAc = target: Fuc(a1-4)GlcNAc
Summary of the method: as §1

Fuc(b1-3)GlcNAc = target: Fuc(b1-3)GlcNAc
Summary of the method: as §1

Gal(a1-2)Gal = target: Gal(a1-2)Gal
Summary of the method: as §1

Gal(a1-3)Gal = target: Gal(a1-3)Gal
Summary of the method: as §1

Gal(a1-3)Gal(b1-3)GlcNAc = target: Gal(a1-3)Gal(b1-3)GlcNAc
Summary of the method: as §1

[18] = target: Gal(a1-3)Gal(b1-3)GlcNAc(b1-2)Man
Summary of the method: as §1

[19] = target: Gal(a1-3)Gal(b1-3)GlcNAc(b1-2)Man(a1-3)[Gal(a1-3)Gal(b1-3)GlcNAc(b1-2)Man(a1-6)]Man(b1-4)GlcNAc(b1-4)GlcNAc
Summary of the method: as §1

[20] = target: Gal(a1-3)Gal(b1-3)GlcNAc(b1-3)GalNAc
Summary of the method: as §1

[21] = target: Gal(a1-3)Gal(b1-3)GlcNAc(b1-6)GalNAc
Summary of the method: as §1

[22] = target: Gal(a1-3)Gal(b1-3)[Fuc(a1-4)]GlcNAc(b1-2)Man(a1-3)[Gal(a1-3)Gal(b1-3)[Fuc(a1-4)]GlcNAc(b1-2)Man(a1-6)]Man(b1-4)GlcNAc(b1-4)GlcNAc
Summary of the method: as §1

Gal(a1-3)Gal(b1-4)Glc = target: Gal(a1-3)Gal(b1-4)Glc
Summary of the method: as §1

Gal(a1-3)Gal(b1-4)GlcNAc = target: Gal(a1-3)Gal(b1-4)GlcNAc
Summary of the method: as §1

[23] = target: Gal(a1-3)Gal(b1-4)GlcNAc(b1-2)Man
Summary of the method: as §1

[24] = target: Gal(a1-3)Gal(b1-4)GlcNAc(b1-2)Man(a1-3)[Gal(a1-3)Gal(b1-4)GlcNAc(b1-2)Man(a1-6)]Man(b1-4)GlcNAc(b1-4)GlcNAc
Summary of the method: as §1

[25] = target: Gal(a1-3)Gal(b1-4)GlcNAc(b1-3)GalNAc
Summary of the method: as §1

[26] = target: Gal(a1-3)Gal(b1-4)GlcNAc(b1-6)GalNAc
Summary of the method: as §1

[27] = target: Gal(a1-3)Gal(b1-4)[Fuc(a1-3)]GlcNAc
Summary of the method: as §1

[28] = target: Gal(a1-3)Gal(b1-4)[Fuc(a1-3)]GlcNAc(b1-2)Man(a1-3)[Gal(a1-3)Gal(b1-4)[Fuc(a1-3)]GlcNAc(b1-2)Man(a1-6)]Man(b1-4)GlcNAc(b1-4)GlcNAc
Summary of the method: as §1

Gal(a1-3)GalNAc = target: Gal(a1-3)GalNAc
Summary of the method: as §1

B1: LF82 (Escherichia coli) (protein)
chain: ADWGPCRTASGDPFIFVTSFTKNIQNPTDNVTGQTYPDFYQWALGDKYSGVCECPSPNPTEARPTLYKTESTLAAGHNSTYFKITNNLEVSTRVYIANVGNVQVPFINKSNSQPGRECDQPTFGWTTGSKGQLSLYIAKPFVGEQNIPQTIIVSVFGTKKENVYSSVPISQVLLSGKVTVTQGCELAAGTSLDIDFGEYQAHDFKGRTGQPPQNVQKIQKELTFNCTNISDGVHIYLSLEGTPNAAYPSAISLGNADVGAVIEDGKGNILKPNDSNSLLEMNPGSLYEYVKRKVTTTITAYPVSTTGKLPAAGDYSGVATMHVELDGGGGGGGGGGATTDLGAKGTLKFSLKISQGHHHHHH
B1 was tested. Which “glycan array binding signal (z-score)” value (Fuc(a1-3)GlcNAc) did it give?
Its value is -1.46.

What about the “glycan array binding signal (z-score)” value [1] of the same binder?
Its value is 0.117.

And the “glycan array binding signal (z-score)” value [2]?
The value was -0.37.

What about the “glycan array binding signal (z-score)” value [3] of the same binder?
Its value is 1.18.

And the “glycan array binding signal (z-score)” value [4]?
The value was -0.401.

What about the “glycan array binding signal (z-score)” value [5] of the same binder?
The value was 1.05.

And the “glycan array binding signal (z-score)” value [6]?
The value was 0.209.

What about the “glycan array binding signal (z-score)” value [7] of the same binder?
Its value is -0.011.

And the “glycan array binding signal (z-score)” value [8]?
The value was -0.07.

What about the “glycan array binding signal (z-score)” value [9] of the same binder?
The value was -0.986.

What about the “glycan array binding signal (z-score)” value [10] of the same binder?
Its value is -0.897.

And the “glycan array binding signal (z-score)” value [11]?
Its value is -1.03.

And the “glycan array binding signal (z-score)” value [12]?
Its value is 0.67.

And the “glycan array binding signal (z-score)” value [13]?
The value was 0.085.

What about the “glycan array binding signal (z-score)” value [14] of the same binder?
Its value is 1.22.

And the “glycan array binding signal (z-score)” value [15]?
Its value is 0.049.

And the “glycan array binding signal (z-score)” value [16]?
Its value is -0.256.

And the “glycan array binding signal (z-score)” value [17]?
Its value is -1.54.

What about the “glycan array binding signal (z-score)” value (Fuc(a1-4)GlcNAc) of the same binder?
The value was -0.348.

What about the “glycan array binding signal (z-score)” value (Fuc(b1-3)GlcNAc) of the same binder?
The value was 0.155.

What about the “glycan array binding signal (z-score)” value (Gal(a1-2)Gal) of the same binder?
The value was -1.81.

And the “glycan array binding signal (z-score)” value (Gal(a1-3)Gal)?
Its value is 1.5.

What about the “glycan array binding signal (z-score)” value (Gal(a1-3)Gal(b1-3)GlcNAc) of the same binder?
Its value is -0.354.

What about the “glycan array binding signal (z-score)” value [18] of the same binder?
Its value is 1.54.

And the “glycan array binding signal (z-score)” value [19]?
Its value is 0.013.

What about the “glycan array binding signal (z-score)” value [20] of the same binder?
Its value is -0.374.

And the “glycan array binding signal (z-score)” value [21]?
The value was -0.546.

And the “glycan array binding signal (z-score)” value [22]?
The value was 0.456.

And the “glycan array binding signal (z-score)” value (Gal(a1-3)Gal(b1-4)Glc)?
Its value is 0.52.

What about the “glycan array binding signal (z-score)” value (Gal(a1-3)Gal(b1-4)GlcNAc) of the same binder?
The value was -0.503.

And the “glycan array binding signal (z-score)” value [23]?
The value was -0.483.

What about the “glycan array binding signal (z-score)” value [24] of the same binder?
The value was 0.554.

And the “glycan array binding signal (z-score)” value [25]?
Its value is -0.989.

And the “glycan array binding signal (z-score)” value [26]?
The value was 1.11.

And the “glycan array binding signal (z-score)” value [27]?
Its value is -1.48.

And the “glycan array binding signal (z-score)” value [28]?
Its value is 1.79.

And the “glycan array binding signal (z-score)” value (Gal(a1-3)GalNAc)?
Its value is 0.188.
